# The entries are a selection whose mix differs from that of the whole data set.
# Test system: 4T1
# Assay: % inhibition of 4T1 cell number vs DMSO control; higher = stronger growth inhibition
# Details: 1 µM, 3 days
# Method in brief: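 In 96-well imaging plates whose edge wells went unused, 3000 4T1-H2B-GFP mouse breast cancer cells per well were seeded in 2% FBS medium onto plastic, denuded lung matrix, mCAF1 fibroblast-derived matrix, Matrigel (15 μg/mL) or 0.2% gelatin. Sixteen hours on, kinase inhibitors went in at 1 μM final for 3 days before formalin fixation, DAPI staining and imaging on an INCell Analyzer 2200. Counting of GFP-positive nuclei gave cell numbers, from which percent inhibition relative to control was derived.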
compound,measurement,setting,value
O=C1Nc2ccc(-c3cccnc3)cc2/C1=C/c1ccc[nH]1 [JAK3 Inhibitor VI],% inhibition of 4T1 cell number,substrate: Matrigel,-19.4%
same,% inhibition of 4T1 cell number,substrate: gelatin,-11%
same,% inhibition of 4T1 cell number,substrate: lung fibroblast-derived matrix,1.34%
same,% inhibition of 4T1 cell number,substrate: mCAF1 fibroblast-derived matrix,32.6%
same,% inhibition of 4T1 cell number,substrate: plastic,32.5%
